Results are given in words; binding and its absence hold for the method and conditions named. In cells and extracts the contact can be indirect. Some results given as binding are weak or reduced against the parent protein; the word gives no strength.
Molecular target: 3X FLAG-RUNX2 (UniProt Q13950)
Experiment: co-IP; 293T cells transfected with 3X FLAG-RUNX2 and/or HA-GSK-3β, RIPA lysate; precipitated with anti-FLAG M2 affinity gel and blotted for HA (Fig. 4C), and in reverse with the HA Tag IP/Co-IP kit and blotted for FLAG, IgG as negative control (Fig. 4D)

The chains behind the UniProt entries cited, without tags or fusion partners.
UniProt Q13950: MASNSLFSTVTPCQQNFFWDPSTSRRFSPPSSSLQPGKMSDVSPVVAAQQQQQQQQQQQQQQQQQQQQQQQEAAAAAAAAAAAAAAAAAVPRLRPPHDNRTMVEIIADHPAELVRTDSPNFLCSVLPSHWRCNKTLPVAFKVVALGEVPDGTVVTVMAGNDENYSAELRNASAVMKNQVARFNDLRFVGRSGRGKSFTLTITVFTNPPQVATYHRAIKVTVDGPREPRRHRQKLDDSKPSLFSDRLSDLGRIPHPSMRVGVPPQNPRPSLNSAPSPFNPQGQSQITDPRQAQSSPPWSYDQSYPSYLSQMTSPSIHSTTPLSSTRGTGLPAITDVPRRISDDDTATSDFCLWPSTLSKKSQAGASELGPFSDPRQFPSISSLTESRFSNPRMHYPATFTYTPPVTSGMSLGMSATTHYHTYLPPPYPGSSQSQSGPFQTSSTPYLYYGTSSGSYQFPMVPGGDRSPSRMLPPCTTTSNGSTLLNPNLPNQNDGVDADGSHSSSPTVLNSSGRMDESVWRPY
UniProt P49841: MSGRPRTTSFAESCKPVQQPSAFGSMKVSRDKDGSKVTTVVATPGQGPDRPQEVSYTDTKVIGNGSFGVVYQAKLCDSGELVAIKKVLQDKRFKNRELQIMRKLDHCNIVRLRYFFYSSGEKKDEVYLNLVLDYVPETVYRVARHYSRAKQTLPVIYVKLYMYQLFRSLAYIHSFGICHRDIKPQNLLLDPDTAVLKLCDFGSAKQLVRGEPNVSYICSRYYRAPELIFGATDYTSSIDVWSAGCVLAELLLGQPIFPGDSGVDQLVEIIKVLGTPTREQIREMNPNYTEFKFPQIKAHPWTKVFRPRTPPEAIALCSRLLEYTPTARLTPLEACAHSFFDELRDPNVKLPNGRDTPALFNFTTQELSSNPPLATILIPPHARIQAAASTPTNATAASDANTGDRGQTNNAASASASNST

## HA-GSK-3β (from UniProt P49841 1-420) (enzyme)
  binding: binds
